No constants are given. Whether binding was seen depends on the method and setting. Some binding calls cover weakened binding; strength is not graded here.
Molecular target: growth hormone (GH) (human) (UniProt P01241)
Test: direct interaction of purified proteins; method for GH not detailed

Sequences of proteins named here, by UniProt entry; tags and fusion partners are left off. A change or cut given only in a name is not applied to a line headed by its entry. Residues count along the entry.
UniProt P01241, residues 27-217: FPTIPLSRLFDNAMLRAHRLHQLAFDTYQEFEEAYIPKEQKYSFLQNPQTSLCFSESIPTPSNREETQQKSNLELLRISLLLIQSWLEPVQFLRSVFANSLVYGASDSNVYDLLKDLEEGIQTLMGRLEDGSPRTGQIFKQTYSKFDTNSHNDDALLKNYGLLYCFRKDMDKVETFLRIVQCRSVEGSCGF
UniProt P23284: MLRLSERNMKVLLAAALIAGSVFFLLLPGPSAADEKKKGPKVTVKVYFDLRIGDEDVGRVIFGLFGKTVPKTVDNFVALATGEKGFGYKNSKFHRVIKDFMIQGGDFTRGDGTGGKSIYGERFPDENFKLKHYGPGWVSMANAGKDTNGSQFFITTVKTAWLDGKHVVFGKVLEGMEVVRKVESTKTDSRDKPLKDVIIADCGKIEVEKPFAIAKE

binding: binds
Substance: His-tagged cyclophilin B (CypB), recombinant, purified from Drosophila S2 cells (from UniProt P23284 34-216) (enzyme)

— patent US7105306
